Results on 39 compounds are retold here after PubChem BioAssay AID504456 (NMMLSC, 2011).

The list shows a part of the results. The main result of the screen is listed elsewhere. These columns were measured beside it and carry no call.

This test in a line: wild-type yeast growth inhibition sparing TORC1 bypass cells, mechanism study for yeast TOR pathway GFP screen, BY4741 wild type, TORC1 bypass strain (AID 504456). The note with it: S. cerevisiae BY4741 spot growth rating, 48-72 h, at 30 µM.
Regarding `CN1CCN(C(=O)c2cc(COc3c(F)cccc3F)on2)CC1c1ccccc1` (centres undefined), the growth rating (0-3) came to 0.

Turning to `CC(=O)c1ccc(N2CCN(C(=O)c3ccc(Br)cc3)CC2)c(F)c1`, the growth rating (0-3) is 3.

`O=[N+]([O-])c1cc(Cl)c2cccnc2c1O` showed a growth rating (0-3) of 3.

The compound `CCOC(=O)c1c(N)nc(NC)nc1Nc1cccc(F)c1` gave a growth rating (0-3) of 3.

`CCOc1ccc(Nc2nc(NC)nc(N)c2[N+](=O)[O-])cc1` showed a growth rating (0-3) of 3.

Compound `Cc1cc(C(=O)COC(=O)c2ccc[nH]c2=O)c(C)n1-c1ccccc1F` came in with a growth rating (0-3) of 3.

Turning to `O=C(Nc1nc(-c2ccccn2)cs1)C1COc2ccccc2O1` (centres undefined), the growth rating (0-3) was found to be 3.

Compound `CCCCC(=O)NNC(=S)NC(=O)c1ccc(C)cc1` came in with a growth rating (0-3) of 3.

`CNc1nc(N)c([N+](=O)[O-])c(NC2CCCCC2)n1` had a growth rating (0-3) of 3.

As to `CCSc1nnc(NC(=O)c2ccccn2)s1`, the growth rating (0-3) stood at 0.

As for `Nc1nc(NC2CCCCC2)nc(Nc2cccc(F)c2)c1[N+](=O)[O-]`, the growth rating (0-3) was 3.

For `Cc1ccc(S(=O)(=O)c2ncccc2[N+](=O)[O-])cc1`, the growth rating (0-3) is 3.

On to `O=C(OCn1ncc(Br)c(Br)c1=O)c1c(F)cccc1F`, for which the growth rating (0-3) turned out to be 3.

Consider `Clc1cc(Cl)cc(Nc2cc(NC3CCCCC3)nc(NCc3ccccc3)n2)c1`, for which the growth rating (0-3) is 3.

As for `C/C(=N\NC(=O)c1cccc(Br)c1)c1ccccn1`, the growth rating (0-3) worked out at 3.

`COc1ccc([N+](=O)[O-])c(S(=O)(=O)c2ccccc2)n1` had a growth rating (0-3) of 3.

On to `CC(C)(C)n1nc(-c2ccc(F)cc2)c2c(N)ncnc21`, for which the growth rating (0-3) amounted to 3.

For the compound `Oc1c(I)cc(Cl)c2cccnc12`, the growth rating (0-3) was determined as 0.

Consider `CCOC(=O)CSC1=NC(=O)/C(=C\c2ccc(Cl)cc2)S1`, for which the growth rating (0-3) worked out at 3.

On to `O=[N+]([O-])c1cc(S(=O)(=O)C(F)(F)F)ccc1Sc1nc2ccccc2s1`, for which the growth rating (0-3) turned out to be 3.

`Cc1ccc(NC(=O)c2ccc(Cl)c(N3C(=O)C=CC3=O)c2)cc1` registered a growth rating (0-3) of 3.

Consider `COCCCNc1nc(N)c([N+](=O)[O-])c(Nc2cccc(F)c2)n1`, for which the growth rating (0-3) is 3.

In turn, `CNc1nc(N)c([N+](=O)[O-])c(NCc2ccccc2)n1` yielded a growth rating (0-3) of 3.

Take `Nc1nc(NCC2CCCO2)nc(Nc2cccc(F)c2)c1[N+](=O)[O-]` (centres undefined): the growth rating (0-3) amounted to 3.

The compound `O=C(Nc1nc(-c2ccccn2)cs1)c1cc2ccccc2o1` returned a growth rating (0-3) of 3.

In turn, `CC(=O)SC(C[N+](=O)[O-])c1cn(C(C)=O)c2ccccc12` (centres undefined) registered a growth rating (0-3) of 3.

`Cn1ncc(S(=O)(=O)Cc2ccccc2)c(Cl)c1=O` returned a growth rating (0-3) of 3.

Take `O=C(OCC(=O)N1CCN(C(=O)c2ccco2)CC1)c1cc(-c2ccc(F)cc2)nc2ccccc12`: the growth rating (0-3) is 3.

As for `Cc1cc(Nc2cc(Nc3ccccc3)nc(NCc3ccccc3)n2)n[nH]1`, the growth rating (0-3) was 3.

Compound `COc1ccc(/C=C/C(=O)NC(=S)NNC(=O)c2cnccn2)cc1` displayed a growth rating (0-3) of 3.

Take `CC(C)(C)C(=O)C(Cl)C(=O)Nc1ccccc1` (centres undefined): the growth rating (0-3) amounted to 3.

The compound `CC(C)(C)n1nc(-c2ccc(Cl)cc2)c2c(N)ncnc21` displayed a growth rating (0-3) of 3.

As for `Clc1ccc(N=c2ssnc2Cl)cc1`, the growth rating (0-3) was 3.

Consider `CNc1nc(N)c([N+](=O)[O-])c(NCc2ccco2)n1`, for which the growth rating (0-3) came to 3.

Regarding `Nc1nc(NCCN2CCOCC2)nc(Nc2cccc(F)c2)c1[N+](=O)[O-]`, the growth rating (0-3) stood at 3.

Turning to `CCOC(=O)c1c(C)oc2c1c(C(c1cccnc1)N1CCOCC1)c(O)c1ccccc12` (centres undefined), the growth rating (0-3) stood at 3.

`CNc1nc(N)cc(Nc2cccc(Cl)c2)n1` showed a growth rating (0-3) of 3.

Take `CC(=O)Nc1ncnc2c1c(-c1ccc(Cl)cc1)nn2C(C)(C)C`: the growth rating (0-3) came to 3.

In turn, `CCOC(=O)CS(=O)(=O)c1nc(-c2ccccc2)cc(C(F)(F)F)n1` showed a growth rating (0-3) of 3.
